Values from PubChem BioAssay AID504786 (Drosophila RNAi Screening Center, 2011).
The screen tested about 21,000 reagents; shown is an unselected part of those that have a named target and a result. 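Primary screen; positive scores mean lost reporter signal, so the sign may be inverted from the usual convention.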 Names joined by + are all predicted targets of the reagent.

Test: 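Knock-downs reducing HIF reporter induction by the iron chelator DFO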 (primary screen)
System: Drosophila S2 cells with a stable HIF luciferase reporter
Reagents: long dsRNA against Drosophila genes, about 0.2 µg dsRNA per well of a 384-well plate
Time to read-out: three days of knock-down, then 20 h of DFO before reading
Challenge: desferrioxamine (DFO) at 100 µM, an iron chelator that mimics hypoxia, for 20 h
Detection: 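Firefly luciferase driven by the mouse ldh-a hypoxia-response element, measured after 20 h of 100 µM DFO; z-scores per plate, higher means more signal lost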
Direction: z-score: higher = stronger loss of HIF reporter signal

no.	target	amplicon	z-score, replicate 1	z-score, replicate 2	z-score, replicate 3	z-score, replicate 4
1	CG6908 (GeneID 41410)	DRSC16131	-0.2	0		
2	CG14367 (GeneID 41676)	DRSC14829	-0.3	-0.4		
3	ca (GeneID 43518)	DRSC15305	-0.4	-0.2		
4	ca (GeneID 43518)	DRSC15306	-0.3	-0.5		
5	ca (GeneID 43518)	DRSC16314	-0.1	-0.5		
6	CG30429 (GeneID 246609)	DRSC04040	-0.2	-0.1		
7	ppk12 (GeneID 37566)	DRSC04086	0.1	0.1		
8	Su(fu) (GeneID 41565)	DRSC16871	-0.3	-0.3		
9	Nprl3 (GeneID 39550)	DRSC11044	-0.4	-0.7		
10	CG14204 (GeneID 32950)	DRSC19559	-0.6	0.6		
11	CG1092 (GeneID 40538)	DRSC12151	-0.3	-0.6		
12	CG9682 (GeneID 43602)	DRSC16536	-0.3	-0.7		
13	CycG (GeneID 43724)	DRSC14324	0	-0.3		
14	NTPase (GeneID 33495)	DRSC00761	-0.4	-0.6		
15	CG7737 (GeneID 36174)	DRSC07033	-0.3	1.2		
16	pps (GeneID 41524)	DRSC16057	0.2	0		
17	Hel25E (GeneID 33781)	DRSC03342	5.1	5.1		
18	CG18371 (GeneID 36556)	DRSC06733	-0.3	-0.3		
19	l(2)27Cb (retired record) (GeneID 48760)	DRSC02758	-0.3	-0.3		
20	Ncc69 (GeneID 39410)	DRSC10412	-0.3	-0.4		
21	Ncc69 (GeneID 39410)	DRSC10413	0	0.2		
22	OSCP1 (GeneID 36300)	DRSC06304	-0.4	-0.2		
23	CG3457 (GeneID 31196)	DRSC18509	-0.3	-0.1		
24	Calx (GeneID 42481)	DRSC13457	3.9	-0.4		
25	Calx (GeneID 42481)	DRSC13459	-0.2	-0.2		
26	Calx (GeneID 42481)	DRSC16599	-0.2	-0.2		
27	CG14646 (GeneID 40555)	DRSC12232	-0.3	-0.7	-0.9	-0.2
28	CG43736 + CG33692 (retired record)	DRSC18370	-0.6	-0.8		
29	CG43736 + CG33692 (retired record)	DRSC18371	-0.3	-0.5		
30	CG7509 (GeneID 38579)	DRSC08596	-0.4	-0.3		
31	se (GeneID 38973)	DRSC10713	-0.3	-0.2		
32	del (GeneID 35380)	DRSC03170	-0.2	-0.4		
33	CG1850 (GeneID 35647)	DRSC06762	-0.2	-0.4		
34	Neurl4 (GeneID 39558)	DRSC10638	-0.1	-0.2		
35	Cyfip (GeneID 41861)	DRSC15679	-0.1	0.4		
36	fs(1)N (GeneID 45973)	DRSC18578	0.3	1.2		
37	CG12971 (GeneID 40365)	DRSC11681	0.6	0.3		
38	CG32727 (GeneID 318176)	DRSC17519	-0.2	-0.2		
39	mRpL19 (GeneID 41028)	DRSC16367	-0.4	-0.8	-0.7	-0.4
40	CG5435 (GeneID 34657)	DRSC02860	-0.3	-0.1		
41	CG12917 (GeneID 36065)	DRSC06231	-0.3	-0.3		
42	Hr51 (GeneID 36702)	DRSC06627	-0.2	-0.3		
43	UQCR-C1 (GeneID 41800)	DRSC15508	1.4	1.3		
44	CG34054 (GeneID 3885601)	DRSC05277	-0.2	-0.1		
45	CG15080 (GeneID 37167)	DRSC06511	0.1	0.1		
46	ymp (GeneID 43088)	DRSC13720	0.1	0.1		
47	ymp (GeneID 43088)	DRSC14482	-0.2	-1		
48	mRpL22 (GeneID 32662)	DRSC19915	1.9	0.6		
49	CG18661 (GeneID 50438)	DRSC02690	-0.2	-0.2		
50	CG34269 (GeneID 5740713)	DRSC07884	-0.2	-0.2		
51	Pabp2 (GeneID 35788)	DRSC07501	4.4	2.5		
52	CG32299 + CG32298	DRSC07980	-0.3	-0.5		
53	CR14798 (GeneID 31126)	DRSC17956	-0.2	0.3		
54	gammaCOP (GeneID 43717)	DRSC16955	-0.3	1.8		
55	tbrd-2 (GeneID 37207)	DRSC07020	-0.2	1.8		
56	CG12766 (GeneID 38462)	DRSC08295	-0.3	0.9		

Already shown: entries from further up.
no.	target	amplicon	z-score, replicate 1	z-score, replicate 2	z-score, replicate 3	z-score, replicate 4
3	ca (GeneID 43518)	DRSC15305	-0.4	-0.2		
4	ca (GeneID 43518)	DRSC15306	-0.3	-0.5		
5	ca (GeneID 43518)	DRSC16314	-0.1	-0.5		
6	CG30429 (GeneID 246609)	DRSC04040	-0.2	-0.1		
7	ppk12 (GeneID 37566)	DRSC04086	0.1	0.1		
8	Su(fu) (GeneID 41565)	DRSC16871	-0.3	-0.3		
9	Nprl3 (GeneID 39550)	DRSC11044	-0.4	-0.7		
